In PubChem BioAssay AID1487 (National Center for Advancing Translational Sciences (NCATS), 2009):
The other results are listed elsewhere or left out. Shown are side measurements of this screen, not its main read-out; they come without a call. Most of these compounds were active or inconclusive in the main read-out, so they are no random draw. Words in brackets tell the shape of the fitted curve; partial curves, single points and poor fits give uncertain potencies.

Assay: qHTS Assay for Modulators of Lamin A Splicing
Details: HeLa LMNA splicing GFP/RFP minigene ratio, 48 h
How it was run: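 Read-out is the ratio of GFP to DsRed2 object intensity, acquired by 488 nm laser-scanning cytometry on HeLa lamin A-EGFP minigene reporter cells. Compound incubation 48 hrs at 37 °C in Opti-MEM with 2% FBS; DMSO 0.5% final.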

[1] = measured here: RFP viability control channel
[2] = measured here: GFP splicing reporter channel

## COc1cc(/C=C(\C#N)C(N)=O)ccc1OCc1c(C)no[n+]1[O-]
[1]
  AC50: 35.5 µM [falling, single point]

## O=C(Oc1ccc(C(=S)N2CCOCC2)cc1Br)c1ccccc1F
[2]
  AC50: 35.5 µM [rising, single point]

## O=[N+]([O-])c1ccc(O)c(/C=N/Nc2ccc(Cl)nn2)c1
[2]
  AC50: 0.355 µM [falling, full curve]
[1]
  AC50: 0.316 µM [falling, full curve]

## NNC(=O)CN1C(c2ccc(Br)cc2)=Nc2ccc(Br)cc2C1c1ccccc1 (centres undefined)
[1]
  AC50: 11.2 µM [rising, single point]

## CCC(=O)Nc1ccc(NC(=S)NC(=O)/C=C/c2ccccc2)cc1
[1]
  AC50: 14.1 µM [rising, partial curve, poor fit]

## Cc1ncoc1C(=O)Nc1cccc(Cl)c1
[2]
  AC50: 15.8 µM [rising, single point]
[1]
  AC50: 22.4 µM [rising, single point]

## O=C(CCc1nnc(Cc2ccc3c(c2)OCO3)o1)NCc1nc2ccccc2s1
[1]
  AC50: 12.6 µM [falling, partial curve]

## COc1ccc(Br)cc1CN(C)CC(=O)Nc1c(Cl)ccc(C)c1Cl
[1]
  AC50: 31.6 µM [rising, single point]

## CCCNC(=O)c1ccccc1NC(=O)c1ccccc1N(C)S(=O)(=O)c1ccc(C)cc1
[1]
  AC50: 17.8 µM [rising, single point]

## COc1ccc(S(=O)(=O)Nc2cccc(SC)c2)cc1OC
[1]
  AC50: 15.8 µM [rising, single point]

## CCc1nc2c(c(=O)c3ccccc3n2C)c(=O)n1CCc1ccc(OC)cc1
[1]
  AC50: 10 µM [rising, partial curve]

## O=c1[nH]c2ccc(Br)cc2c(-c2ccccc2)c1CN1CCOCC1
[2]
  AC50: 35.5 µM [rising, single point]

## Cc1ccc(S(=O)(=O)N/N=C\c2cn(-c3ccccc3)nc2-c2ccccc2)cc1
[2]
  AC50: 22.4 µM [falling, partial curve, poor fit]
[1]
  AC50: 35.5 µM [falling, single point]

## COc1ccc(C(C)n2c(C)c3c(C)nnc(C)c3c2C)cc1 (centres undefined)
[2]
  AC50: 35.5 µM [falling, single point]
[1]
  AC50: 31.6 µM [falling, partial curve, poor fit]

## O=C(NCCOc1ccc(F)cc1)c1ccccc1SCc1ccccc1
[1]
  AC50: 22.4 µM [rising, partial curve]

## O=C(N/N=C/c1cc2cc3c(cc2nc1Cl)OCCO3)c1ccccc1O
[2]
  AC50: 0.0708 µM [rising, full curve, poor fit]

## O=S1(=O)c2cccc3cccc(c23)N1Cc1ccc(-c2nnco2)cc1
[1]
  AC50: 31.6 µM [rising, single point]

## CCC(=C(c1ccc(OC)cc1)c1ccc(OC)cc1)c1cn(CC(O)CN2CCN(C)CC2)c2ccccc12 (centres undefined)
[2]
  AC50: 25.1 µM [falling, partial curve]
[1]
  AC50: 25.1 µM [falling, single point]

## CCNC(=S)N/N=C/c1cccc(OCc2c(F)cccc2Cl)c1
[1]
  AC50: 14.1 µM [rising, partial curve]

## COc1ccccc1NC(=O)c1c(C)cc(C)nc1SCC(=O)Nc1ccc(C)c(C)c1
[2]
  AC50: 1.78 µM [rising, partial curve]
[1]
  AC50: 0.224 µM [rising, full curve, poor fit]

## Nc1n[nH]c(C2CC2)c1N=Nc1ccc(Cl)cc1
[2]
  AC50: 35.5 µM [falling, single point]

## COc1ccc(CC(=O)N(c2ccccc2)c2nc(C)cs2)cc1
[1]
  AC50: 35.5 µM [rising, single point]

## CC(C)(C)C(=O)NNC(=O)COc1ccc2ccccc2c1Br
[1]
  AC50: 17.8 µM [rising, single point]

## NCCOc1ccc(C23CC4CC(CC(C4)C2)C3)cc1
[1]
  AC50: 28.2 µM [falling, single point]

## CCOC(=O)N1CCN(C(=O)c2ccc(OC)c(S(=O)(=O)N3CCOCC3)c2)CC1
[1]
  AC50: 0.00316 µM [falling, full curve, poor fit]

## Cc1ccc(Sc2cnn(-c3ccccc3)c(=O)c2Cl)cc1
[2]
  AC50: 4.47 µM [falling, single point]

## CCN(CC)S(=O)(=O)c1cccc(C(=O)OCC(=O)Nc2ccc3c(c2)c2ccccc2n3CC)c1
[2]
  AC50: 12.6 µM [rising, partial curve, poor fit]
[1]
  AC50: 22.4 µM [rising, partial curve]

## O=C(Cc1ccccc1)N(Cc1cccnc1)c1nc2c(Cl)cccc2s1
[2]
  AC50: 0.0224 µM [rising, full curve, poor fit]
[1]
  AC50: 20 µM [rising, partial curve, poor fit]

## Cc1nc2cc(NC(=O)CSc3nc4c(C)cccc4cc3C#N)ccc2s1
[2]
  AC50: 2.51 µM [rising, partial curve, poor fit]

## O=C(CCC1CCCC1)N1CCc2c([nH]c3ccccc23)C1c1ccc(F)cc1 (centres undefined)
[1]
  AC50: 17.8 µM [rising, partial curve]

## CCOc1ccc2nc(SCc3ccc(OC)cc3)sc2c1
[2]
  AC50: 14.1 µM [rising, single point]
[1]
  AC50: 25.1 µM [rising, single point]

## COc1ccc(NC(=O)c2cc3c(=O)n(Cc4cccs4)ccc3nc2C)cc1
[1]
  AC50: 22.4 µM [rising, partial curve]

## COCCNc1nc(-c2ccc(OC)cc2)c(-c2ccc(OC)cc2)s1
[1]
  AC50: 28.2 µM [rising, single point]

## Cc1ccc(N2CCN(S(=O)(=O)N3CCCCC3)CC2)cc1Cl
[2]
  AC50: 14.1 µM [rising, single point]
[1]
  AC50: 35.5 µM [rising, single point]

## Cc1ccc(-n2ncc(C#N)c2/N=C/N2CCCCCC2)cc1
[1]
  AC50: 14.1 µM [rising, single point]

## Cc1cc(C)n(-c2ccc3cccc(NS(C)(=O)=O)c3n2)n1
[2]
  AC50: 2.24 µM [rising, full curve]
[1]
  AC50: 3.55 µM [rising, partial curve, poor fit]

## CNC(=S)N1N=C(c2ccc(Br)cc2)CC1c1ccc(N(C)C)cc1 (centres undefined)
[2]
  AC50: 1.26 µM [falling, full curve, poor fit]
[1]
  AC50: 1.78 µM [falling, partial curve]
